Measurements as given in paper PMC6271009, “Design and Synthesis of Thiazolo[5,4-f]quinazolines as DYRK1A Inhibitors, Part II” (Molecules, 2014).

Chains of the proteins cited; added tags and fusions are not shown.
UniProt Q9Y463, whole entry: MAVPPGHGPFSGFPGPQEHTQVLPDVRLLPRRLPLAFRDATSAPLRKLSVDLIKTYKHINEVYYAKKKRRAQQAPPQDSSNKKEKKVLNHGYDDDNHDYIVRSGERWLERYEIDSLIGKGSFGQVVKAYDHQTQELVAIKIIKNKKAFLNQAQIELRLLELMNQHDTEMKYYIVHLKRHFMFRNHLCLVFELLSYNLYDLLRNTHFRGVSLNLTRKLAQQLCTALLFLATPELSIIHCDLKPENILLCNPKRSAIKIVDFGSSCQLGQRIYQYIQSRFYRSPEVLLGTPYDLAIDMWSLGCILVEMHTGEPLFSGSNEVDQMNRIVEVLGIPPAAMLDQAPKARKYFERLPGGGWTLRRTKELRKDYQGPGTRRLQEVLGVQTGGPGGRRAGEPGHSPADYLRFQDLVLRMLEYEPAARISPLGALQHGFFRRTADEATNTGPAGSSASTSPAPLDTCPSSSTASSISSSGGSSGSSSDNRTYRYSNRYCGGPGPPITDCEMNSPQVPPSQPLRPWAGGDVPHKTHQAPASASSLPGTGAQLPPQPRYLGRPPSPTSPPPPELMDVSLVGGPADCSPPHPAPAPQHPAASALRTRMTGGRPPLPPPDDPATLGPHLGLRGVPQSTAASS

Target: T1, DYRK1B (Homo sapiens, UniProt Q9Y463)
T1 construct: Purified recombinant kinase was incubated with serial 3-fold dilutions of test compounds; purchased Reaction Biology Corporation
Test: DYRK1B kinase assay, Reaction Biology Corporation HotSpot technology (33P ATP)
Format: biochemical
Details: purified recombinant kinase, 10 µM ATP, 120 min, room temperature

`COc1ccc2c(c1)[nH]c1c(C)nccc12` [harmine, reference compound] gave an IC50 of 27.9 nM.
